Results are given in words; binding and its absence hold for the method and conditions named. In cells and extracts the contact can be indirect. Some results given as binding are weak or reduced against the parent protein; the word gives no strength.
Experiments:
[1] = target: mCherry-Flag-F508del-CFTR, rescued to the plasma membrane with VX-661 (UniProt P13569); test: co-IP; intact CFBE cells labelled on ice 2 h with anti-Flag M2 (or non-specific IgG) in PBS-CM, then non-denaturing lysis (1% NP-40, 0.01% SDS, 100 mM NaCl); CFTR complexes from the plasma membrane captured on protein G magnetic beads, washed with 200 mM NaCl, 1% NP-40; Western blot; inputs adjusted to equal precipitated wt- and rF508del-CFTR
mCherry-Flag-wt-CFTR = mCherry-Flag-wt-CFTR (UniProt P13569); test: as above

Chains of the proteins cited; added tags and fusions are not shown. Lines headed by an entry give the natural chain unless they say otherwise; changes in a name come on top. A line that says so, or that is headed by a name, gives the form on record, which may keep a tag or linker.
UniProt P13569: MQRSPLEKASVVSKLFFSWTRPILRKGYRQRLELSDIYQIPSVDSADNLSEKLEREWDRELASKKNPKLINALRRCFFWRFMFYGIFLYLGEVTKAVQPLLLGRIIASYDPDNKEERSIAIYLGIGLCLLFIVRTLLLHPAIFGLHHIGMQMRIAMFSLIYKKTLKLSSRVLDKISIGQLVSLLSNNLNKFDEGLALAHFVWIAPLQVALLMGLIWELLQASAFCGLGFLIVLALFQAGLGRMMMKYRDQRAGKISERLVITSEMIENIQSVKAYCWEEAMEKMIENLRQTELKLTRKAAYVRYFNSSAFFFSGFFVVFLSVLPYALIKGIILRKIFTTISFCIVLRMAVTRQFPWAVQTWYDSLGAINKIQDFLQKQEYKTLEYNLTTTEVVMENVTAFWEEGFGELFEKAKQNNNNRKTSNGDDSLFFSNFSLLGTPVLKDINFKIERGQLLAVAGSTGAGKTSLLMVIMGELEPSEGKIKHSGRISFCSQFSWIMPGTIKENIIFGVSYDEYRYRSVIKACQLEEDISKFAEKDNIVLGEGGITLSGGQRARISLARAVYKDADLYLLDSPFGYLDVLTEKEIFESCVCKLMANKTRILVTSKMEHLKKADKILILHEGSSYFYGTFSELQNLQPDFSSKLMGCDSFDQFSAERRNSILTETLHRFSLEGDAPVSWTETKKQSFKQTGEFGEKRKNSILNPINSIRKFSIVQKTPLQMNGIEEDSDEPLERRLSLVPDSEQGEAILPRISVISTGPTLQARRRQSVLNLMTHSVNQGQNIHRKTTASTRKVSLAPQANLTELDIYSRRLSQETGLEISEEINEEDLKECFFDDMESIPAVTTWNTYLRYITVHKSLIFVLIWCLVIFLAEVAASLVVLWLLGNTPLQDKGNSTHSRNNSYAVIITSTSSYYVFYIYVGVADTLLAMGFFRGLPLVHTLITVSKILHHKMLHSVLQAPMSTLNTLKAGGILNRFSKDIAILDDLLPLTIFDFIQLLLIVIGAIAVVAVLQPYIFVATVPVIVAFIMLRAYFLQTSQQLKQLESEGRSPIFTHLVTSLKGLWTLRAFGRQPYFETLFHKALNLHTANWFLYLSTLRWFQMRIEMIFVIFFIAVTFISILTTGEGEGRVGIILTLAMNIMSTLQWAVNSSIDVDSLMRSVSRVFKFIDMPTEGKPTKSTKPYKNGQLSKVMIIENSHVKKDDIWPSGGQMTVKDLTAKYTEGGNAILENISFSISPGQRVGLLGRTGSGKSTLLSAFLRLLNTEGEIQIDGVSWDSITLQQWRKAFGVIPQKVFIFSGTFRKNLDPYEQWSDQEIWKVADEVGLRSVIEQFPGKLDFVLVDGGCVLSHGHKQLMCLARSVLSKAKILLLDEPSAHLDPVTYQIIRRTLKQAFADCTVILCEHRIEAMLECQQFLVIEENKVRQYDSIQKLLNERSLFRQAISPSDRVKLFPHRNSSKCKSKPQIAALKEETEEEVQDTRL
mCherry-Flag-F508del-CFTR, rescued to the plasma membrane with VX-661 (P13569, form named): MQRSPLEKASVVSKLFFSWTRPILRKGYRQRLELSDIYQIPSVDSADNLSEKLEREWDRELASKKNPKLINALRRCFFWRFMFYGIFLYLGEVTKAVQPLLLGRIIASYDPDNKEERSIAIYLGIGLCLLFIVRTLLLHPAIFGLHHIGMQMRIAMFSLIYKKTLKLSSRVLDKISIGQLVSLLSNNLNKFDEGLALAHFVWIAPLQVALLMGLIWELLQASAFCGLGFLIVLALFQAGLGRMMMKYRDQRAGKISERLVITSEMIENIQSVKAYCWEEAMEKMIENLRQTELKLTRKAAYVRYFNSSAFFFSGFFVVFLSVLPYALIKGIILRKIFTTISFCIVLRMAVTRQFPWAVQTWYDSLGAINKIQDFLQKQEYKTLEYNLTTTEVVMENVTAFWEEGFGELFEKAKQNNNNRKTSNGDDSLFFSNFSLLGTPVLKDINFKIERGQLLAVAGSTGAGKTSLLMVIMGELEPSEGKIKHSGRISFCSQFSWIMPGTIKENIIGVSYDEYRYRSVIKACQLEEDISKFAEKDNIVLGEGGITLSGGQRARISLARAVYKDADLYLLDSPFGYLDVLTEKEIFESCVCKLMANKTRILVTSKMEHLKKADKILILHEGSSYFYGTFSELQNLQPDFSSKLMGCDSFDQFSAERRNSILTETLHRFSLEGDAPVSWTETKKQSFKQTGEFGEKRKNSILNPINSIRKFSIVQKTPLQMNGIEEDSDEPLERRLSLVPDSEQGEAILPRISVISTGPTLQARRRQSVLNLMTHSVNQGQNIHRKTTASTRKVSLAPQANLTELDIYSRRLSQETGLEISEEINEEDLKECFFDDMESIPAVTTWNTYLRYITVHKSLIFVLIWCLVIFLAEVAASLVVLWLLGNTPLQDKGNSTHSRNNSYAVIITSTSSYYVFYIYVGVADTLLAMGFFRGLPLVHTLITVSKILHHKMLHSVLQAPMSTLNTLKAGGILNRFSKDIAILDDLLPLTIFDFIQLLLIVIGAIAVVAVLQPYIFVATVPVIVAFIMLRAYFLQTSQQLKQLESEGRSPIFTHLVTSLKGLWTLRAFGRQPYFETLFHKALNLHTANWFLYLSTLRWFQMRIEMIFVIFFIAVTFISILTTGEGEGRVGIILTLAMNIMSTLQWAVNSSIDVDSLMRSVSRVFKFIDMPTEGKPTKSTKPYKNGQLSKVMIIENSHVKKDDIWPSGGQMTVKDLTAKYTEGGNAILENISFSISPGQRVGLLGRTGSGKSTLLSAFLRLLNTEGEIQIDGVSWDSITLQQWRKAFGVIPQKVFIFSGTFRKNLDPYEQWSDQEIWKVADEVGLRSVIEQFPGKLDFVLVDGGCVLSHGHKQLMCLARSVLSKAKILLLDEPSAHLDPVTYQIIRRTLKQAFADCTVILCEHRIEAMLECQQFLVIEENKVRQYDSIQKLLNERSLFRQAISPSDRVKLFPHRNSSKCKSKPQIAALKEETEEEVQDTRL
UniProt P46937: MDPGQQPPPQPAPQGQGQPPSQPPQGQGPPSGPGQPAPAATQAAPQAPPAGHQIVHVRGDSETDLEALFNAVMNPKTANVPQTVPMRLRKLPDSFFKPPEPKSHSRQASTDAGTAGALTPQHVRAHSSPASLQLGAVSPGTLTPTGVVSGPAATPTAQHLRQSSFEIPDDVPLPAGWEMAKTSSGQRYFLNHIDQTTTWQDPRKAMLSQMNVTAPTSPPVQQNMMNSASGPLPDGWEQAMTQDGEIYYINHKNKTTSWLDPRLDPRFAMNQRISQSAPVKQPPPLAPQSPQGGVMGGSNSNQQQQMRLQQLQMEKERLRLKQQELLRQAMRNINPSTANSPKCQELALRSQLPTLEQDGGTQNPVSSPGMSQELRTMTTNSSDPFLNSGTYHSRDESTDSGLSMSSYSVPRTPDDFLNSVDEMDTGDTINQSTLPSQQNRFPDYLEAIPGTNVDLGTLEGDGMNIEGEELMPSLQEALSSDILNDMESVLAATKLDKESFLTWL
UniProt P07947: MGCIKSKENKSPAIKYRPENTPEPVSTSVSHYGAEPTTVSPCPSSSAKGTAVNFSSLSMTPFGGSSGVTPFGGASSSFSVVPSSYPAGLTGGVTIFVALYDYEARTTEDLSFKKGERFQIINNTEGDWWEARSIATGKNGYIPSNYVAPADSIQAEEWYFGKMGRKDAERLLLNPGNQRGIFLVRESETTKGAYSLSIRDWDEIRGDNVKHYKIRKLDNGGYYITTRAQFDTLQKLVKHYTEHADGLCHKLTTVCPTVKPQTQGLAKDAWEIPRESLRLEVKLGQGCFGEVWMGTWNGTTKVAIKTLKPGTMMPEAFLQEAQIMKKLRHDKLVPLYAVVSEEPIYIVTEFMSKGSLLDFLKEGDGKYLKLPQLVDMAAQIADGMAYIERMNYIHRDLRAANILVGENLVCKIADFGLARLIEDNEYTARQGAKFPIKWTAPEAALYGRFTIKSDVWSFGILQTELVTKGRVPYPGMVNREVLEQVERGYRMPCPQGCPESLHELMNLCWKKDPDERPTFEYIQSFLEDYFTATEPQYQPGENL

Substance	binding [1]	binding (mCherry-Flag-wt-CFTR)
YES-associated protein 1 (YAP1) (from UniProt P46937 1-504)	binds	no binding
Yamaguchi sarcoma viral oncogene homolog 1 (YES1) (from UniProt P07947 1-543) (enzyme)	–	no binding

— article PMC10296715
